Assay results: PubChem BioAssay AID328 (DTP/NCI, 2004)
The list is a part of this screen's results and no random one: it gathers tests that were run many times, whatever their T/C, doses with no T/C, and many T/C values between a quarter and a half above the control. Further doses and runs are listed elsewhere. T/C gives the treated animals as a percentage of the vehicle group. Some doses have a count of surviving animals in place of a T/C: the source holds a T/C of zero for them, seemingly a mark for toxic or unscored doses. Some doses without a T/C left all or most animals alive at the check, yet need not have been tolerated: the source hardly ever lists a survival T/C far under the control, and the zero likely stands for such cases as well. Counts of survivors are from the toxicity check (mostly the fifth day) where no day follows; animals may have died later. Schedule codes are those of the source, taken here to give the interval after Q, in days (D) or hours (H), and the number of doses after X. For survival time, this PubChem deposit counts one and a half times the control or more as active, and values a quarter to a half above the control carry no call in these data; other NCI protocols may use other cut-offs.

Tested on: BDF1 mice, P388 leukemia ip, median survival T/C
Experiment: NCI In Vivo Anticancer Drug Screen. Data for tumor model P388 Leukemia (intraperitoneal) in B6D2F1 (BDF1) mice
Settings: T/C endpoint: median survival time, higher T/C = longer survival
How it was run: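 Antitumour effect was judged in vivo: survival in drug-treated mice, normalised to that of vehicle-dosed controls, gives the reported T/C.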

Compound: CN[C@H]1CC[C@]23C[C@]24CC[C@]2(C)[C@@H]([C@H](C)N(C)C)CC[C@@]2(C)[C@@H]4CC[C@H]3C1(C)C
- T/C (dose: 40.0 mg/kg/injection, schedule: Q01DX010 (ip), vehicle: carboxymethylcellulose (CMC)): 145 % of control
- survivor count (dose: 60.0 mg/kg/injection, schedule: Q01DX010 (ip), vehicle: carboxymethylcellulose (CMC)): 4 of 6
- survivor count (dose: 80.0 mg/kg/injection, schedule: Q01DX010 (ip), vehicle: carboxymethylcellulose (CMC)): 5 of 6

Compound: CC(=O)Nc1ccc(NC(=O)NCCCl)cc1
- survivor count (dose: 200.0 mg/kg/injection, schedule: Q01DX009 (ip), vehicle: Klucel (hydroxypropylcellulose) (HPC)): 2 of 6
- T/C (dose: 200.0 mg/kg/injection, schedule: Q04DX003 (ip), vehicle: Klucel (hydroxypropylcellulose) (HPC)): 125 % of control
- survivor count (dose: 300.0 mg/kg/injection, schedule: Q04DX003 (ip), vehicle: Klucel (hydroxypropylcellulose) (HPC)): 4 of 6

Compound: O=C(C(=O)c1ccc(Cl)cc1)c1ccc(Cl)cc1
- survivor count (dose: 50.0 mg/kg/injection, schedule: Q04DX003 (ip), vehicle: other): 6 of 6

Compound: COC(=O)c1[nH]c(=O)[nH]c(=O)c1F
- T/C (dose: 75.0 mg/kg/injection, schedule: Q04DX003 (ip), vehicle: saline with Tween-80): 131 % of control

Compound: NC(=S)N/N=C\c1ncccc1OCc1cccc(N)c1
- T/C (dose: 12.5 mg/kg/injection, schedule: Q01DX009 (ip), vehicle: other): 145 % of control

Compound: NCCCn1c2ccccc2c2cnccc21
- survivor count (dose: 50.0 mg/kg/injection, schedule: Q01DX009 (ip), vehicle: water): 3 of 6
- survivor count (dose: 100.0 mg/kg/injection, schedule: Q01DX009 (ip), vehicle: water): 0 of 6
- survivor count (dose: 200.0 mg/kg/injection, schedule: Q04DX003 (ip), vehicle: water): 0 of 6

Compound: CC(=O)Oc1ccc(N2C(=O)C=CC2=O)cc1
- survivor count (dose: 21.0 mg/kg/injection, schedule: Q04DX003 (ip), vehicle: Klucel (hydroxypropylcellulose) (HPC)): 2 of 6

Compound: CC(=O)Oc1cccc2c1C(=O)c1c(OC(C)=O)cccc1C2=O
- T/C (dose: 6.25 mg/kg/injection, schedule: Q04DX003 (ip), vehicle: Klucel (hydroxypropylcellulose) (HPC)): 127 % of control
